{
  "sequences": {"note": "By UniProt entry, the sequences of proteins in these tests, tags left out. Where a name states a change or a piece, a line headed by the entry shows the natural chain unless it says otherwise.", "UniProt P14416, whole entry, looked up": "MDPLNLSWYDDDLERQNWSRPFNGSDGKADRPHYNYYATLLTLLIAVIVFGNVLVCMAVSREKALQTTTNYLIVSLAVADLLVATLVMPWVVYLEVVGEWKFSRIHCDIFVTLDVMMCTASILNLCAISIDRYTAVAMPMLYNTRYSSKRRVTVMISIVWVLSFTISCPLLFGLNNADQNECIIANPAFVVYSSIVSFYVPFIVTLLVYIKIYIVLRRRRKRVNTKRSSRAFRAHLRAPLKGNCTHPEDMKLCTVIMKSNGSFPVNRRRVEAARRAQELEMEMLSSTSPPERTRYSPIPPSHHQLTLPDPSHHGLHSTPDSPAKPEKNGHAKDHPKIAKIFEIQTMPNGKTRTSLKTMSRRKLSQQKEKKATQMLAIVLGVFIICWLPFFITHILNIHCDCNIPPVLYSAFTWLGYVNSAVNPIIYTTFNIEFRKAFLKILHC", "UniProt P30968": "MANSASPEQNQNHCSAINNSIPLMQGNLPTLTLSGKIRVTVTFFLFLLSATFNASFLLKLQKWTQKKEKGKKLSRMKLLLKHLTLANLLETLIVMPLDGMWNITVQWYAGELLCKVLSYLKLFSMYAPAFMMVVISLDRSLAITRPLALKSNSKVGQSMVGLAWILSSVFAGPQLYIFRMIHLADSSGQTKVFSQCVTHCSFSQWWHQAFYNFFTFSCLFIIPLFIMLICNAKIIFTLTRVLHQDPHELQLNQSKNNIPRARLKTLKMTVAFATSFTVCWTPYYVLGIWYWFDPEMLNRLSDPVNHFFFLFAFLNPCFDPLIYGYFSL", "UniProt Q969F8, whole entry, looked up": "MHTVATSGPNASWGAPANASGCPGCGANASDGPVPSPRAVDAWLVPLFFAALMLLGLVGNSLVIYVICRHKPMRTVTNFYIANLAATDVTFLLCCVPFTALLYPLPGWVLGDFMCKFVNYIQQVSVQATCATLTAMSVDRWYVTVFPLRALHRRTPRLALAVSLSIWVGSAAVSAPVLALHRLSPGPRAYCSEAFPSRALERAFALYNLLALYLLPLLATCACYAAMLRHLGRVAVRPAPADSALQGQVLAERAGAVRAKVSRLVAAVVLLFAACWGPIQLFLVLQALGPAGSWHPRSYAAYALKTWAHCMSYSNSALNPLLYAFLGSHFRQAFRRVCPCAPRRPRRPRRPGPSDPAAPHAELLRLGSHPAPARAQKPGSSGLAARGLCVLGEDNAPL", "UniProt P28223, whole entry, looked up": "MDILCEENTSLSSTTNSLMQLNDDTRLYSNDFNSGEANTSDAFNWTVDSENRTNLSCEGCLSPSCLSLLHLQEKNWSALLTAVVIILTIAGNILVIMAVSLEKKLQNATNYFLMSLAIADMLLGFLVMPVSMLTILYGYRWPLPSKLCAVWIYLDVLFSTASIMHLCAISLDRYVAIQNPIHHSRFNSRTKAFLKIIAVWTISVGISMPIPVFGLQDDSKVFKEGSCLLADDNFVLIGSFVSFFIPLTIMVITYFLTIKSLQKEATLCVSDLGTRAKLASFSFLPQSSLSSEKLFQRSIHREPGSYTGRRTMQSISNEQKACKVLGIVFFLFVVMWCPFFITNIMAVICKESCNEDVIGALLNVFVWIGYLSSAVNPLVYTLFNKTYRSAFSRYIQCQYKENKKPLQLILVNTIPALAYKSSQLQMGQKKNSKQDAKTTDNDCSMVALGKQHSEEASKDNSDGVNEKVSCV", "UniProt P11229": "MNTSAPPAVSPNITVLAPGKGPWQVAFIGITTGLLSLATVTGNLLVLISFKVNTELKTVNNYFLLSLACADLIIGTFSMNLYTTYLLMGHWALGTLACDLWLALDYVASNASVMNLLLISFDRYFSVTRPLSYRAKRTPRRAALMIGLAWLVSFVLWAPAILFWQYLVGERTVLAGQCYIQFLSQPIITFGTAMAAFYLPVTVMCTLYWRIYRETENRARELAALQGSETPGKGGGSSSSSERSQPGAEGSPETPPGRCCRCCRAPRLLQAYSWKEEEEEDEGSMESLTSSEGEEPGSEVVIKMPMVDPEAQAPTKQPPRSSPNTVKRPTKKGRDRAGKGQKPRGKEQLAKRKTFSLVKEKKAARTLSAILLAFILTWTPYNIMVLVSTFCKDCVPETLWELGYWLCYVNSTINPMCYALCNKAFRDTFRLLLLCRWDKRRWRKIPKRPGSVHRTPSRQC"},
  "source": "PubChem BioAssay (Tox21)",
  "key": {"[1]": {"assay": "Nuclear factor erythroid 2-related factor 2/antioxidant responsive element (Nrf2/ARE) small molecule agonists: luciferase reporter gene qHTS assay in human keratinocytes (AID 1919969); note: nearly all actives have a fitted effect of over 35% in size"}, "[2]": {"biological_target": "Beta-2 adrenergic receptor (Homo sapiens) (UniProt P07550)", "assay": "Adrenergic beta2 receptor (ADRB2) small molecule agonists, cell-based qHTS assay (AID 1963593); for activation: % is set by controls: 0 for no effect and ±100 for the full control effect", "conditions": "CHO-ADRB2 cells, cAMP HTRF, 30 min", "procedure,_shortened": "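CHO cells stably over-expressing ADRB2 were plated overnight at 37C, then dosed with compounds plus a stimulation mix containing 100uM IBMX and 25uM Ro-20-1724 for 0.5hr at room temperature. cAMP was measured by HTRF competition, 1hr.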"}, "[3]": {"biological_target": "D(2) dopamine receptor (Homo sapiens) (UniProt P14416)", "assay": "Dopamine D2 receptor (DRD2) small molecule antagonists, cell-based qHTS assay (AID 1963595; active = well fitted inhibition curve with a large enough effect in the signal ratio in the repeat runs, with a control signal flat; inconclusive = weak or mixed curves, or effect the other way; the % refers to the signal ratio; for activity change, negative = inhibition: % is set by controls: 0 for no effect and ±100 for the full control effect)", "conditions": "HEK293-DRD2 cAMP HTRF antagonist mode; activity change, negative = inhibition: at 92.4 µM (top of the series) unless noted", "procedure,_shortened": "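DRD2-HEK293; 0.1 mM Ro20-1724; cpd 10 min RT; NKH477 200 nM + quinpirole 12 nM, 30 min RT; HTRF cAMP (cAMP-d2/anti-cAMP cryptate), 665/620 nm ratio after 1 h.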"}, "[4]": {"biological_target": "Gonadotropin-releasing hormone receptor (Homo sapiens) (UniProt P30968)", "assay": "Human gonadotropin-releasing hormone receptor (GnRHR) small molecule agonists, calcium flux assay in GnRHR-HEK293 cells (AID 1920063); note: nearly all actives have a fitted effect of over 35% in size", "conditions": "calcium flux fluorescence, agonist mode; activity change: at 57.6 µM (top of the series), stronger effect = higher value unless noted", "procedure,_shortened": "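Cells: HEK293 stably expressing human GnRHR. Steps: overnight (18 h) culture, 1 h calcium dye loading at 37 C, compound addition, kinetic fluorescence read at 480/540 nm. Each compound tested at 15 concentrations in triplicate.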"}, "[5]": {"biological_target": "KiSS-1 receptor (Homo sapiens) (UniProt Q969F8)", "assay": "Human kisspeptin (KISS1R) small molecule agonists, calcium flux assay in KISS1R-HEK293 cells (AID 1920064; active = well fitted activation curve with a large enough effect in the repeat runs; inconclusive = weak or mixed curves)", "conditions": "KISS1R-HEK293, calcium flux fluorescence, agonist; activation: at 76.8 µM (top of the series)", "procedure,_shortened": "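Cells plated and incubated 18 h; dye added, 1 h at 37 C; compounds in DMSO pinned in; signal read at 480/540 nm every second for 3 min. Each compound tested at 15 concentrations in triplicate.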"}, "[6]": {"assay": "G protein-coupled receptor (GPCR) small molecule agonists, calcium flux assay: HEK293 wild type cell line counter screen (AID 1920065)", "procedure,_shortened": "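Counter-screen of the Tox21 10K library for non-specific calcium release: dye-loaded cells received compounds in DMSO and were monitored by kinetic fluorescence (480/540 nm, 3 min). Fifteen concentrations, run in triplicate.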"}, "[7]": {"assay": "p53 small molecule agonists, cell-based qHTS assay with rat liver microsomes: qHTS cell viability counter screen (AID 1963580); note: nearly all actives have a fitted effect of over 45% in size", "procedure,_shortened": "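In HCT-116 cells carrying a p53 response element-bla reporter, compounds were metabolically activated in situ by rat liver microsomes with NADPH over 16 h. Cell ATP content then served as the cytotoxicity measure.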"}, "[8]": {"assay": "p53 small molecule agonists, cell-based qHTS assay: qHTS cell viability counter screen (AID 1963581); note: nearly all actives have a fitted effect of over 45% in size", "procedure,_shortened": "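Cells: HCT-116 with p53 response element-driven beta-lactamase. Treatment: 16 h, 37 C, compounds in DMSO. Read: CellTiter-Glo luminescence after 30 min RT.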"}, "[9]": {"assay": "p53 small molecule agonists, cell-based qHTS assay (AID 1963582; active = well fitted activation curve with a large enough effect in the signal ratio in the repeat runs, not every such curve was filed as active; inconclusive = weak or mixed curves; the % refers to the signal ratio)", "conditions": "HCT-116 p53RE-bla reporter, beta-lactamase FRET ratio, 16 h; activation: at 66 µM (top of the series) unless noted", "procedure,_shortened": "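Quantitative HTS in p53RE-bla cells: after a 5 h settling period, compounds delivered in DMSO were left on cells for 16 h at 37 C, and reporter induction was measured as fluorescence following 2 h substrate loading.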"}, "[10]": {"biological_target": "5-hydroxytryptamine receptor 2A (Homo sapiens) (UniProt P28223)", "assay": "5-hydroxytryptamine receptor 2A (HTR2A) small molecule antagonists, cell-based qHTS assay (AID 1963586); note: nearly all actives have a fitted effect of over 45% in size", "procedure,_shortened": "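Antagonist-mode intracellular calcium assay: DOI (4 nM) added after 5 min compound pre-incubation at room temperature to dye-loaded HTR2A-CHO cells. Fluorescence followed for 3 min, sampled every second.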"}, "[11]": {"biological_target": "5-hydroxytryptamine receptor 2A (Homo sapiens) (UniProt P28223)", "assay": "5-hydroxytryptamine receptor 2A (HTR2A) small molecule agonists, cell-based qHTS assay (AID 1963587); note: nearly all actives have a fitted effect of over 30% in size", "conditions": "HTR2A-CHO cells, calcium flux fluorescence, agonist mode; activation: at 76.8 µM (top of the series)", "procedure,_shortened": "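HTR2A-CHO cells, plated 18 h at 37 C/5% CO2, dye-loaded 1 h at 37 C; compounds in DMSO added by pin tool (agonist mode). Intracellular calcium flux read as kinetic fluorescence on FDSS over 2 min at 1 s intervals.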"}, "[12]": {"biological_target": "Muscarinic acetylcholine receptor M1 (Homo sapiens) (UniProt P11229)", "assay": "Cholinergic receptor muscarinic 1 (CHRM1) small molecule antagonists, cell-based qHTS assay (AID 1963588); note: nearly all actives have a fitted effect of over 40% in size", "procedure,_shortened": "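CHRM1-CHO calcium-flux assay, antagonist mode. Cells were seeded 18 h, dye-loaded 1 h at 37 C and given compound for 5 min at RT, then acetylcholine was added at 50nM. FDSS fluorescence was read 3 min; 15 concentrations, three runs.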"}, "[13]": {"assay": "cAMP Responsive Elements (CRE) small molecule agonists, cell-based qHTS assay (AID 1963590)", "conditions": "CRE-bla HEK293T, beta-lactamase FRET ratio, 3 h; activation: at 92.4 µM (top of the series) unless noted", "procedure,_shortened": "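Agonist mode qHTS in CRE-bla HEK 293T cells: compounds dosed from DMSO for 3 h at 37 C/5% CO2, followed by LiveBLAzer B/G FRET substrate for 2 h at room temperature.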"}, "[14]": {"assay": "cAMP Responsive Elements (CRE) small molecule antagonists, cell-based qHTS assay (AID 1963591; active = well fitted inhibition curve with a large enough effect in the signal ratio in the repeat runs, not every such curve was filed as active; inconclusive = weak or mixed curves, or effect the other way; the % refers to the signal ratio)", "conditions": "CRE-bla HEK293T, beta-lactamase FRET ratio; activity change, negative = inhibition: at 92.4 µM (top of the series) unless noted", "procedure,_shortened": "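Antagonist mode: test compounds are co-incubated with the adenylyl cyclase activator NKH477 (0.25 uM final) on CRE-bla HEK293T cells for 3 h at 37 °C, followed by LiveBLAzer substrate loading.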"}, "[15]": {"biological_target": "Beta-2 adrenergic receptor (Homo sapiens) (UniProt P07550)", "assay": "Adrenergic beta2 receptor (ADRB2) small molecule antagonists, cell-based qHTS assay (AID 1963592); note: nearly all actives have a fitted effect of over 50% in size; for activity change, negative = inhibition: % is set by controls: 0 for no effect and ±100 for the full control effect", "conditions": "CHO-ADRB2 cells, isoproterenol-stimulated cAMP HTRF ratio, 0.5 h; activity change, negative = inhibition: at 92.4 µM (top of the series) unless noted", "procedure,_shortened": "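Cells (CHO, stable ADRB2 overexpression) incubated 18-20hr at 37C; compounds added from DMSO; agonist mix (1nM isoproterenol, 100uM IBMX, 25uM Ro-20-1724) added; 0.5hr RT; d2-cAMP and anti-cAMP-cryptate added; 1hr RT; 665/615 nm read.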"}, "[16]": {"assay": "p53 small molecule agonists, cell-based qHTS assay with human liver microsomes (AID 1963577)", "conditions": "HCT-116 p53RE-bla with human liver microsomes, ratio, 16 h; activation: at 66 µM (top of the series) unless noted", "procedure,_shortened": "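Reporter activation was measured by LiveBLAzer fluorescence intensity in p53RE-bla cells, which had been exposed to compounds for 16 h at 37 C alongside 0.5 mg/mL human liver microsomes and 0.5 mg/mL NADPH (final concentrations).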"}, "[17]": {"conditions": "activation: at 92.4 µM (top of the series) unless noted"}},
  "note": "Values joined by “and” are separate entries in the source; they are usually repeats but may differ in a detail not shown here. Equal entries are not always repeated. The inconclusive results got no clear call from the source; some entries with a clear call stand among them for comparison. For some of these results: Where the call is inconclusive, the potency comes from a doubtful curve fit. Active and inactive are the calls of the source. Unless noted, calls come from the whole dose curve. Potency is the fitted concentration of half-maximal effect.",
  "data": [
    {"smiles": "C=CCN(CC=C)C(=O)C(Cl)Cl", "values": [
      {"measurement": "Potency", "setting": "[1]", "result": "inactive"},
      {"measurement": "Potency", "setting": "[2]; [17]", "result": "inactive"},
      {"measurement": "Potency", "setting": "[3]", "result": "inactive"}
    ]},
    {"smiles": "CCC/C(=N\\OCC)C1=C(O)CC(CC(C)SCC)CC1=O", "note": "(stereo unspecified)", "values": [
      {"measurement": "Potency", "setting": "[1]", "result": "inconclusive: 69 µM [activator, single point]"},
      {"measurement": "activation", "setting": "[2]; [17]", "result": "inconclusive: -5.18%"}
    ]},
    {"smiles": "C=CC(=O)[O][Sn]([CH2]CCC)([CH2]CCC)[CH2]CCC", "values": [
      {"measurement": "Potency", "setting": "[4]", "result": "active: 5.49 µM"},
      {"measurement": "Potency", "setting": "[5]", "result": "active: 19.5 µM"},
      {"measurement": "Potency", "setting": "[6]", "result": "active: 38.9 µM"},
      {"measurement": "Potency", "setting": "[7]", "result": "active: 8.14 µM"},
      {"measurement": "Potency", "setting": "[8]", "result": "active: 1.62 µM"},
      {"measurement": "Potency", "setting": "[9]", "result": "inconclusive: 11.5 µM [falling, full curve]"},
      {"measurement": "Potency", "setting": "[10]", "result": "active: 3.75 µM"},
      {"measurement": "Potency", "setting": "[11]", "result": "active: 12.3 µM"},
      {"measurement": "Potency", "setting": "[12]", "result": "inconclusive: 1.68 µM [inhibitor, full curve]"},
      {"measurement": "Potency", "setting": "[13]", "result": "inconclusive: 3.86 µM [rising, full curve]"},
      {"measurement": "Potency", "setting": "[14]", "result": "inconclusive: 5.45 µM [fluorescent]"},
      {"measurement": "Potency", "setting": "[15]", "result": "active: 969 nM"},
      {"measurement": "activation", "setting": "[2]; [17]", "result": "inconclusive: 47.8%"},
      {"measurement": "Potency", "setting": "[3]", "result": "active: 2.43 µM"}
    ]},
    {"smiles": "Nc1ccc([As](=O)(O)O)cc1", "values": [
      {"measurement": "Potency", "setting": "[1]", "result": "inconclusive: 6.68 µM [activator, single point]"},
      {"measurement": "activation", "setting": "[2]; at 42.5 µM (top of the series)", "result": "inconclusive: 6.66% and inactive: -3.62%"},
      {"measurement": "activation", "setting": "[2]; at 92.4 µM (top of the series)", "result": "inconclusive: -6.7%"}
    ]},
    {"smiles": "CCC(C)c1cc([N+](=O)[O-])cc([N+](=O)[O-])c1O", "note": "(stereo unspecified)", "values": [
      {"measurement": "Potency", "setting": "[4]", "result": "inconclusive: 17.4 µM [activator, partial curve, poor fit]"},
      {"measurement": "Potency", "setting": "[6]", "result": "inconclusive: 34.7 µM [activator, partial curve, poor fit]"},
      {"measurement": "Potency", "setting": "[16]", "result": "inconclusive: 40.8 µM [falling, single point]"},
      {"measurement": "Potency", "setting": "[9]", "result": "inconclusive: 1.45 µM [fluorescent, partial curve, poor fit]"},
      {"measurement": "Potency", "setting": "[13]", "result": "inconclusive: 19.3 µM [rising, full curve]"},
      {"measurement": "Potency", "setting": "[14]", "result": "inconclusive: 48.6 µM [fluorescent, partial curve]"},
      {"measurement": "activity change, negative = inhibition", "setting": "[15]", "result": "inconclusive: -40.9%"},
      {"measurement": "Potency", "setting": "[2]; [17]", "result": "inconclusive: 68.6 µM [cytotoxic, partial curve, poor fit]"},
      {"measurement": "activation", "setting": "[2]; [17]", "result": "inconclusive: 38.9%"}
    ]}
  ]
}
